The values below come from paper PMC4091708.

Amino acid sequences for entries named in this document (tags omitted). Residues count along the entry.
UniProt P18537, residues 19-581: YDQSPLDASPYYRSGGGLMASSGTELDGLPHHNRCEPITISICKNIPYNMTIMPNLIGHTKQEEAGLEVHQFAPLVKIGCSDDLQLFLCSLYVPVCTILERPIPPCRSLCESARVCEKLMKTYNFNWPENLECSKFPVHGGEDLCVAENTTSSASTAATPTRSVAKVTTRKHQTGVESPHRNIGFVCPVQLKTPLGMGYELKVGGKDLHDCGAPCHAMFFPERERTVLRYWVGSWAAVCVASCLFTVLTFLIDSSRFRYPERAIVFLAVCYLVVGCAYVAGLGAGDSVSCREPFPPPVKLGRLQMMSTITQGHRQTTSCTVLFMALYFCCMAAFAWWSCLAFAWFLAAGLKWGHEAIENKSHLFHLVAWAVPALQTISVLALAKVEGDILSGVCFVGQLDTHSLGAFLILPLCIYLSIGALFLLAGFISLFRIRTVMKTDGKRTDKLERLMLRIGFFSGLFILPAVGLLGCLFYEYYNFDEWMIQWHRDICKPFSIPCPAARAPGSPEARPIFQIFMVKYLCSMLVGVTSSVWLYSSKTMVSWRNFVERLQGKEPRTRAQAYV

Read-outs that look alike come from different tables or passages of the source. No constants are given. Whether binding was seen depends on the method and setting. Binding seen in cells or lysates may run through a third protein. Some results given as binding are weak or reduced against the parent protein; the word gives no strength. Sequences can lack the tags named with a protein.

Holding throughout (test): co-IP; epitope-tagged proteins co-overexpressed by transient transfection in S2r+ cells; lysis in 50 mM Tris-Cl pH 7,5, 150 mM NaCl, 1% NP40, 0.2% Na-Deoxycholate with protease inhibitors; anti-Myc or anti-GFP IP overnight at 4°C on Protein A/G Sepharose; Western blot for the other tag
(A western blot detects proteins with antibodies after separation by electrophoresis.)

Experiment [1] addresses T1, Otk-GFP (GFP-tagged Off-track) (Drosophila melanogaster) (UniProt Q6AWJ9).
T1 sequence: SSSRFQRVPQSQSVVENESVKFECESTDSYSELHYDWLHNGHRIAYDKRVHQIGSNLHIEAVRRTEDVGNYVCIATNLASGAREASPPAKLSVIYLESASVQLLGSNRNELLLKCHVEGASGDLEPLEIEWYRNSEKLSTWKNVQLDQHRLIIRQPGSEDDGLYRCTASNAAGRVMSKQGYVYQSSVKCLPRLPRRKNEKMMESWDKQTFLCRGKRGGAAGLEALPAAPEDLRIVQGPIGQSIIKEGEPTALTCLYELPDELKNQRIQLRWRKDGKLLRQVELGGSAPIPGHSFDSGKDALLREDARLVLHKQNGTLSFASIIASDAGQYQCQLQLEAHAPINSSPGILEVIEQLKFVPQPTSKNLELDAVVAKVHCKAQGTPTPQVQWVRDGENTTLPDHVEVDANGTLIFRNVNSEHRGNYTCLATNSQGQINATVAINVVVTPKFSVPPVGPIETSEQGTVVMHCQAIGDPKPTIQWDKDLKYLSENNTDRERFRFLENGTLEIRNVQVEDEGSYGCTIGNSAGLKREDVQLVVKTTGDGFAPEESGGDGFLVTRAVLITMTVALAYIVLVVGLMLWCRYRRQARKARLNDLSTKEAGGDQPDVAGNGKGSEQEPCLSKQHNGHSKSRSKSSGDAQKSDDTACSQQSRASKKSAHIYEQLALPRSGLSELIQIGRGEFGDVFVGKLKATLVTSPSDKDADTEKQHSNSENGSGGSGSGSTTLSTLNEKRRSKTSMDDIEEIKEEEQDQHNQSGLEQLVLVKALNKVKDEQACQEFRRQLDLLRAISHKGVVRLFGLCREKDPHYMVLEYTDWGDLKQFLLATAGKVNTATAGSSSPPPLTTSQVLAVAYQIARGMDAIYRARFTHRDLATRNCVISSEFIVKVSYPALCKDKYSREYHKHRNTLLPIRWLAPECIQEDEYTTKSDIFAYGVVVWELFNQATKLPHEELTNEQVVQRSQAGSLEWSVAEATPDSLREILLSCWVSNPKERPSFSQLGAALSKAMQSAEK

In experiment [2] the target is T2, Otk-Myc (Myc-tagged Off-track) (Drosophila melanogaster) (UniProt Q6AWJ9).
T2 sequence: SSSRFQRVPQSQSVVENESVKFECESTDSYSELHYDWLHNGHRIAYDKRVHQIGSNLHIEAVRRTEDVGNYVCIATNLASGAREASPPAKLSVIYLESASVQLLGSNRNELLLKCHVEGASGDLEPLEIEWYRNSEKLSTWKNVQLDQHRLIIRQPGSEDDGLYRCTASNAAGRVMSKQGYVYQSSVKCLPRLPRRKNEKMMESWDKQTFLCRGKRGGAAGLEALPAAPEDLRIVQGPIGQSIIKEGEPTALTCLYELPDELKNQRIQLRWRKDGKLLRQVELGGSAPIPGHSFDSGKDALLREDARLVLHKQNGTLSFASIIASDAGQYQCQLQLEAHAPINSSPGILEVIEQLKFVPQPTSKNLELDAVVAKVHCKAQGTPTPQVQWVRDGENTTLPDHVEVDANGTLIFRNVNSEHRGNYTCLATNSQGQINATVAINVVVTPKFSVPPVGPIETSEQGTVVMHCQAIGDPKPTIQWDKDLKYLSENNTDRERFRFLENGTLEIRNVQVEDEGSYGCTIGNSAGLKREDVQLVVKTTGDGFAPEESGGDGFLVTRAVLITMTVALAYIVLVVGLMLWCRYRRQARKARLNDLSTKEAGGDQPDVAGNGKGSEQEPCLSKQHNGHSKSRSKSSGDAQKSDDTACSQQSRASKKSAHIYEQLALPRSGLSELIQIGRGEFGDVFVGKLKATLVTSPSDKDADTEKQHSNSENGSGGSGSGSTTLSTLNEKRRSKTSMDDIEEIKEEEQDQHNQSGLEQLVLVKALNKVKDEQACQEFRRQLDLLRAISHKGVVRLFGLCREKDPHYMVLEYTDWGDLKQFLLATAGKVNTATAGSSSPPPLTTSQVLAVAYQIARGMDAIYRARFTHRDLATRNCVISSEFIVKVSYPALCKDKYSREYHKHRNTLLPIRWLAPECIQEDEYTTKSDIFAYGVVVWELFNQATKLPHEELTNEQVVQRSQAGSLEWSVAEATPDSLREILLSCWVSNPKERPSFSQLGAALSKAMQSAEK

The target of experiment [3] is T3, OtkDeltaCy-Myc (Myc-tagged Otk lacking the cytoplasmic domain, aa 776–1033) (Drosophila melanogaster) (UniProt Q6AWJ9).
T3 sequence: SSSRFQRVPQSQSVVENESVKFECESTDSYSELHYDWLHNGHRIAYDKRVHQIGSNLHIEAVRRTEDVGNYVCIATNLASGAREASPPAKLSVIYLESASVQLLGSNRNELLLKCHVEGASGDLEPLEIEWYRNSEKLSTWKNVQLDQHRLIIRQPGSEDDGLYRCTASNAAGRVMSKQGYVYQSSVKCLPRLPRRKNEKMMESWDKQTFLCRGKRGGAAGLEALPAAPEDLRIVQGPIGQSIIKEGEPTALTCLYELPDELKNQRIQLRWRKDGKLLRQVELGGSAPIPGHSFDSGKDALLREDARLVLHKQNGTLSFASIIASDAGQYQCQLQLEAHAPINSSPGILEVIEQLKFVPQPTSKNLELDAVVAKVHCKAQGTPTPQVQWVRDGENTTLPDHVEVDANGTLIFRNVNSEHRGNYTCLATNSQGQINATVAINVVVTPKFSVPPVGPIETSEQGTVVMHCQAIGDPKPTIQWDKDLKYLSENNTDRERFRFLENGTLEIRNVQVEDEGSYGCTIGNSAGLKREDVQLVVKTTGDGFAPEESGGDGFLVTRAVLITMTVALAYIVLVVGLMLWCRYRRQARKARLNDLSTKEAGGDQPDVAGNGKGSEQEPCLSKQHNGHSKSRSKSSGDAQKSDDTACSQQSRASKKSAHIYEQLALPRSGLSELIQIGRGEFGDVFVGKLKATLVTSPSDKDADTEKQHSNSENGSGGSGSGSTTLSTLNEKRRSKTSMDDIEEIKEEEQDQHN

For experiment [4], the target named is T4, OtkDeltaEx-Myc (Myc-tagged Otk lacking the extracellular domain, aa 2–474) (Drosophila melanogaster) (UniProt Q6AWJ9).
T4 sequence: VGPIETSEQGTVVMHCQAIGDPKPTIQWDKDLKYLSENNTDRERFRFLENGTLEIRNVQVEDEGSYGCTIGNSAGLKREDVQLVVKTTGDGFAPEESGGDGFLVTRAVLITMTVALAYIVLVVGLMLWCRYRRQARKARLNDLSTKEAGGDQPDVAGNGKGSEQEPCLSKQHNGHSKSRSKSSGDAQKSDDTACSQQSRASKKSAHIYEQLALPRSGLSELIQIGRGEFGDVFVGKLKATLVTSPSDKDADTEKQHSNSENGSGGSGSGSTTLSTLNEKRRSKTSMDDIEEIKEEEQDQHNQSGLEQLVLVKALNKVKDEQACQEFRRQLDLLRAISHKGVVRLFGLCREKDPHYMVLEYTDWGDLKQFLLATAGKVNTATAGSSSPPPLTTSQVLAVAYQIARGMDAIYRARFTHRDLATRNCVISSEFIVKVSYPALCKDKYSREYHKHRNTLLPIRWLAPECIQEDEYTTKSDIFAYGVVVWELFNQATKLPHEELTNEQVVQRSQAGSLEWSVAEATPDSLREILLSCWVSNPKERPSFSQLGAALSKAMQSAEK

The target in experiment [5] is T1, Otk-GFP (GFP-tagged Off-track) (Drosophila melanogaster). This is another data set of the same source.

On to “Fz1-Myc (Myc-tagged Frizzled) (from UniProt P18537 19-581) (receptor)”, for which the binding entry in experiment [1] is “binds”.

B1: Otk-GFP (GFP-tagged Off-track) (receptor, UniProt Q6AWJ9 23-1033)
chain: SSSRFQRVPQSQSVVENESVKFECESTDSYSELHYDWLHNGHRIAYDKRVHQIGSNLHIEAVRRTEDVGNYVCIATNLASGAREASPPAKLSVIYLESASVQLLGSNRNELLLKCHVEGASGDLEPLEIEWYRNSEKLSTWKNVQLDQHRLIIRQPGSEDDGLYRCTASNAAGRVMSKQGYVYQSSVKCLPRLPRRKNEKMMESWDKQTFLCRGKRGGAAGLEALPAAPEDLRIVQGPIGQSIIKEGEPTALTCLYELPDELKNQRIQLRWRKDGKLLRQVELGGSAPIPGHSFDSGKDALLREDARLVLHKQNGTLSFASIIASDAGQYQCQLQLEAHAPINSSPGILEVIEQLKFVPQPTSKNLELDAVVAKVHCKAQGTPTPQVQWVRDGENTTLPDHVEVDANGTLIFRNVNSEHRGNYTCLATNSQGQINATVAINVVVTPKFSVPPVGPIETSEQGTVVMHCQAIGDPKPTIQWDKDLKYLSENNTDRERFRFLENGTLEIRNVQVEDEGSYGCTIGNSAGLKREDVQLVVKTTGDGFAPEESGGDGFLVTRAVLITMTVALAYIVLVVGLMLWCRYRRQARKARLNDLSTKEAGGDQPDVAGNGKGSEQEPCLSKQHNGHSKSRSKSSGDAQKSDDTACSQQSRASKKSAHIYEQLALPRSGLSELIQIGRGEFGDVFVGKLKATLVTSPSDKDADTEKQHSNSENGSGGSGSGSTTLSTLNEKRRSKTSMDDIEEIKEEEQDQHNQSGLEQLVLVKALNKVKDEQACQEFRRQLDLLRAISHKGVVRLFGLCREKDPHYMVLEYTDWGDLKQFLLATAGKVNTATAGSSSPPPLTTSQVLAVAYQIARGMDAIYRARFTHRDLATRNCVISSEFIVKVSYPALCKDKYSREYHKHRNTLLPIRWLAPECIQEDEYTTKSDIFAYGVVVWELFNQATKLPHEELTNEQVVQRSQAGSLEWSVAEATPDSLREILLSCWVSNPKERPSFSQLGAALSKAMQSAEK
With B1, the binding result in experiment [2], in experiment [3] and in experiment [4] was “binds” throughout.

B2: Fz2-Myc (Myc-tagged Frizzled2) (receptor, UniProt Q9VVX3 23-694)
chain: DGPLHSADHGMGGMGMGGHGLDASPAPGYGVPVIPKDPNLRCEEITIPMCRGIGYNMTSFPNEMNHETQDEAGLEVHQFWPLVEIKCSPDLKFFLCSMYTPICLEDYHKPLPVCRSVCERARSGCAPIMQQYSFEWPERMACEHLPLHGDPDNLCMEQPSYTEAGSGGSSGGSGGSGSGSGSGGKRKQGGSGSGGSGAGGSSGSTSTKPCRGRNSKNCQNPQGEKASGKECSCSCRSPLIFLGKEQLLQQQSQMPMMHHPHHWYMNLTVQRIAGVPNCGIPCKGPFFSNDEKDFAGLWIALWSGLCFCSTLMTLTTFIIDTERFKYPERPIVFLSACYFMVAVGYLSRNFLQNEEIACDGLLLRESSTGPHSCTLVFLLTYFFGMASSIWWVILSFTWFLAAGLKWGNEAITKHSQYFHLAAWLIPTVQSVAVLLLSAVDGDPILGICYVGNLNPDHLKTFVLAPLFVYLVIGTTFLMAGFVSLFRIRSVIKQQGGVGAGVKADKLEKLMIRIGIFSVLYTVPATIVIGCYLYEAAYFEDWIKALACPCAQVKGPGKKPLYSVLMLKYFMALAVGITSGVWIWSGKTLESWRRFWRRLLGAPDRTGANQALIKQRPPIPHPYAGSGMGMPVGSAAGSLLATPYTQAGGASVASTSHHHLHHHVLKQPAASHV
In the case of B2, the binding entry in experiment [5] is “binds”.

B3: Wnt2-Myc (Myc-tagged Drosophila Wnt2) (ligand, UniProt P28465 24-352)
chain: FTSVMLCGRIPGLTPGQRNMCREMPDALIALGEGHQLGAQECQHQFRGHRWNCSEVWQRNVFAHVIPTASREAAYTYAIASAGAAYAVTAACARGNISTCGCDVRHKATPTGGGTPDEPWKWGGCSADVDFGMRYARRFMDARELERDSRTLMNLHNNRAGRTLVKKMLRTDCKCHGVSGSCVMKTCWKSLPPFRLVGDRLMLKYQKAKTVQAVKGKRGLRLVLSRKKHAGTARAQKPVLDWPKRMELIYLEASPNYCERSLQTGSQGTSGRTCQRTGHGPQSCDLLCCGRGHNTQHIRRTTQCRCQFRWCCEVKCDECDESYEEFTCK
For the molecule B3, in experiment [5], the binding entry is reported as “binds”.
